Measurements taken from the supplement of paper PMC12067093, “Discovery and optimisation of a covalent ligand for TRIM25 and its application to targeted protein ubiquitination” (Chemical Science, 2025).
The other results are listed elsewhere or left out.

Protein sequences, listed by entry. Tags and fused reporters are not part of them. Lines headed by an entry give the natural chain unless they say otherwise; changes in a name come on top.
UniProt Q9Y4L1: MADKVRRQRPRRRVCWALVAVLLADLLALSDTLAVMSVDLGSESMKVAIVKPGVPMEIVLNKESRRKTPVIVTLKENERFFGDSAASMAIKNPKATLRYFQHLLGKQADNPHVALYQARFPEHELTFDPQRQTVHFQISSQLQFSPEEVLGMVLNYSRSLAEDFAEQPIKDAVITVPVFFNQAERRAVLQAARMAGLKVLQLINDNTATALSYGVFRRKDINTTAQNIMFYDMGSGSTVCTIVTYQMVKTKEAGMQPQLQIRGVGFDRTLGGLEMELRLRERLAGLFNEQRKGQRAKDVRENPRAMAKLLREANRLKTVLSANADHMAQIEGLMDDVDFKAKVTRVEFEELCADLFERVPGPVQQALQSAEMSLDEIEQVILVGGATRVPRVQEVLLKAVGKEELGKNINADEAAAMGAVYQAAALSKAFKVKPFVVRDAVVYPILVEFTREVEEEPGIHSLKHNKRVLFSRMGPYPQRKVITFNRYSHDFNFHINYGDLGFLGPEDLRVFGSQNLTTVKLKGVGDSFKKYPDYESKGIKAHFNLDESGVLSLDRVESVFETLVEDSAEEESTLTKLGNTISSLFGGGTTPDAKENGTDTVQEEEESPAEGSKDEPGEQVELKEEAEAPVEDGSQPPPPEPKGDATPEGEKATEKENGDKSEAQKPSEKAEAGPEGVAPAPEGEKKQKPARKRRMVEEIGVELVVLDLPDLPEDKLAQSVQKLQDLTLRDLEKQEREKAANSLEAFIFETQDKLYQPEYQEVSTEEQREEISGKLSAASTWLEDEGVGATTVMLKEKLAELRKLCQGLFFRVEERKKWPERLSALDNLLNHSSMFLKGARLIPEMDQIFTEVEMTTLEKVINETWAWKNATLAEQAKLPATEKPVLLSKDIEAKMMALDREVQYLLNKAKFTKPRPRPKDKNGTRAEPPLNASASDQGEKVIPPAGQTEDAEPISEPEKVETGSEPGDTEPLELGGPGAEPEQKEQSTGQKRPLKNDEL
UniProt Q27J81, whole entry, looked up: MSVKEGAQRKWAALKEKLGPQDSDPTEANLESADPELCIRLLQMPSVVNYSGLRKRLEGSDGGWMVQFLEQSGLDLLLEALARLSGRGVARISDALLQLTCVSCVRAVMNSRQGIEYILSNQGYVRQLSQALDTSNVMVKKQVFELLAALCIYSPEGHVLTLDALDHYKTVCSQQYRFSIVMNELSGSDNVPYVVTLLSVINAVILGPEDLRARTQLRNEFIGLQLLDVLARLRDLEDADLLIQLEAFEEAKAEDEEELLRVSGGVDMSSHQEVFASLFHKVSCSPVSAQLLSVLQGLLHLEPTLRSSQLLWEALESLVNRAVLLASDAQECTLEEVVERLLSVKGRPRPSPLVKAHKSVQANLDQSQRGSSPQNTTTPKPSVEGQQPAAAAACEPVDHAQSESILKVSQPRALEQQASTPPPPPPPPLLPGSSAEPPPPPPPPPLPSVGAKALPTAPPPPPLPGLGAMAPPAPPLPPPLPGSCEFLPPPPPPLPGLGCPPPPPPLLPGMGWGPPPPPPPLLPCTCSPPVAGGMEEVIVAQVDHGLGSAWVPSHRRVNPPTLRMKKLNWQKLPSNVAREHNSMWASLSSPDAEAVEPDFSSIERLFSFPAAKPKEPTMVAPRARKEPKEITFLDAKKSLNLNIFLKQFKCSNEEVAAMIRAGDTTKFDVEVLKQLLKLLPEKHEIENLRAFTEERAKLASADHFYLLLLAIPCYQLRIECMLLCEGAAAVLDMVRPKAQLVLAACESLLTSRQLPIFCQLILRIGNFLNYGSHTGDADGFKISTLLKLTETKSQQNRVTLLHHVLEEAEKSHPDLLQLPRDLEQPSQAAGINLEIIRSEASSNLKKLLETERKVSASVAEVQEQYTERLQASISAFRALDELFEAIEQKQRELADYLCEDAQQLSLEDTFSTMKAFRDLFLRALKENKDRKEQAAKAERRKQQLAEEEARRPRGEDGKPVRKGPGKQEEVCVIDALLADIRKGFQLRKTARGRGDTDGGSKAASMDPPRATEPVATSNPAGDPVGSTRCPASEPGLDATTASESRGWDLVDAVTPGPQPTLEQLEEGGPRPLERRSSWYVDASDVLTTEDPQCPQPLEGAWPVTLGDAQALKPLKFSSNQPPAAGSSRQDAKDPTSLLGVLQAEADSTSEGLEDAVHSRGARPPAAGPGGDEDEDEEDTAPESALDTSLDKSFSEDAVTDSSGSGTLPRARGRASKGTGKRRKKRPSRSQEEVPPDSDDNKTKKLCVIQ
UniProt Q14642: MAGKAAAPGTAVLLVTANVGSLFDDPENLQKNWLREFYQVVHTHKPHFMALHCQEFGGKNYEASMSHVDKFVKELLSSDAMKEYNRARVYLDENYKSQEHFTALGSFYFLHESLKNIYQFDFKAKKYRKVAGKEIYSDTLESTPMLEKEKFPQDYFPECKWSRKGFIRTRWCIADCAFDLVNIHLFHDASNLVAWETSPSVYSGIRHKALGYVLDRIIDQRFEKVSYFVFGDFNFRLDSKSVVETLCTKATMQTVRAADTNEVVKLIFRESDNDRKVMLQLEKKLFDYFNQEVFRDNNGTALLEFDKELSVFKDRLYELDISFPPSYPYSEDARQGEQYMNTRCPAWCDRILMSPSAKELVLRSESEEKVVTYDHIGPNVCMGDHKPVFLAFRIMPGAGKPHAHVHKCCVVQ
UniProt O14920: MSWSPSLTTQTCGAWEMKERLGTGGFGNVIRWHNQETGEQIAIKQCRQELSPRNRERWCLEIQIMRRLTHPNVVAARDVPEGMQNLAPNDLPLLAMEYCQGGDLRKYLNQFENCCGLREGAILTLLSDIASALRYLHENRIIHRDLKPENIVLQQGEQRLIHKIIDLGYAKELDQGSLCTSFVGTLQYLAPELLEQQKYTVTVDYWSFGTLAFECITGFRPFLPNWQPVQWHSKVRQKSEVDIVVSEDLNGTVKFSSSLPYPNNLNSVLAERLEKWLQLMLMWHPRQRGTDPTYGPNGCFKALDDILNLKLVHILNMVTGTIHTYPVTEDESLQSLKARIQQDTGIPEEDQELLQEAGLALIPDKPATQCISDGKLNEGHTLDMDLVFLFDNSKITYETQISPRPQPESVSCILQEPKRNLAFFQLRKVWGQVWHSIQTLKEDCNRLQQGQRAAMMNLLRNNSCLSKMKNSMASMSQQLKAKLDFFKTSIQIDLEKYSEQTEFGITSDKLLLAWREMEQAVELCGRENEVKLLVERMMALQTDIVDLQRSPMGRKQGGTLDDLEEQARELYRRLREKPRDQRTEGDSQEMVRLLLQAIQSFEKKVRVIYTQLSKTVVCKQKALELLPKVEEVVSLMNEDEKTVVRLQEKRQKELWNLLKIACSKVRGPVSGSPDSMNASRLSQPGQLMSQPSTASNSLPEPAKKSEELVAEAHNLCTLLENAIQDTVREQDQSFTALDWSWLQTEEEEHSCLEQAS
UniProt A1L0T0: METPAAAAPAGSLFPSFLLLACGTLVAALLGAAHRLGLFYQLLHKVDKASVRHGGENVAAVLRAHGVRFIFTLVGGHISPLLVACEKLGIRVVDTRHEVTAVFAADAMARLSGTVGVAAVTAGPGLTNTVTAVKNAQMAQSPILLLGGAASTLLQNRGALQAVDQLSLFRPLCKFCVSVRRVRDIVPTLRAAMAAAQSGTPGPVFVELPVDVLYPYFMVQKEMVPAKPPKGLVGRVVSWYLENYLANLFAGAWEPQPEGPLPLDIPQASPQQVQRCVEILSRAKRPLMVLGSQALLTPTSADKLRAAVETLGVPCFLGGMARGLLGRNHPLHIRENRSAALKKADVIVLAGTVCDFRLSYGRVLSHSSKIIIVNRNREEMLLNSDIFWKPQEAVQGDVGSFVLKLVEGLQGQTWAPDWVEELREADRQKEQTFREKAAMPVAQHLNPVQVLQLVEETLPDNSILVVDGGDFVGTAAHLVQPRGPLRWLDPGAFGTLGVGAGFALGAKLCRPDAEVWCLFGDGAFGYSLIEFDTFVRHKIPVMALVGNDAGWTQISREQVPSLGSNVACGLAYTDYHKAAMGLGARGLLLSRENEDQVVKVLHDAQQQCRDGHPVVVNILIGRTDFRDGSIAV
UniProt P14735, whole entry, looked up: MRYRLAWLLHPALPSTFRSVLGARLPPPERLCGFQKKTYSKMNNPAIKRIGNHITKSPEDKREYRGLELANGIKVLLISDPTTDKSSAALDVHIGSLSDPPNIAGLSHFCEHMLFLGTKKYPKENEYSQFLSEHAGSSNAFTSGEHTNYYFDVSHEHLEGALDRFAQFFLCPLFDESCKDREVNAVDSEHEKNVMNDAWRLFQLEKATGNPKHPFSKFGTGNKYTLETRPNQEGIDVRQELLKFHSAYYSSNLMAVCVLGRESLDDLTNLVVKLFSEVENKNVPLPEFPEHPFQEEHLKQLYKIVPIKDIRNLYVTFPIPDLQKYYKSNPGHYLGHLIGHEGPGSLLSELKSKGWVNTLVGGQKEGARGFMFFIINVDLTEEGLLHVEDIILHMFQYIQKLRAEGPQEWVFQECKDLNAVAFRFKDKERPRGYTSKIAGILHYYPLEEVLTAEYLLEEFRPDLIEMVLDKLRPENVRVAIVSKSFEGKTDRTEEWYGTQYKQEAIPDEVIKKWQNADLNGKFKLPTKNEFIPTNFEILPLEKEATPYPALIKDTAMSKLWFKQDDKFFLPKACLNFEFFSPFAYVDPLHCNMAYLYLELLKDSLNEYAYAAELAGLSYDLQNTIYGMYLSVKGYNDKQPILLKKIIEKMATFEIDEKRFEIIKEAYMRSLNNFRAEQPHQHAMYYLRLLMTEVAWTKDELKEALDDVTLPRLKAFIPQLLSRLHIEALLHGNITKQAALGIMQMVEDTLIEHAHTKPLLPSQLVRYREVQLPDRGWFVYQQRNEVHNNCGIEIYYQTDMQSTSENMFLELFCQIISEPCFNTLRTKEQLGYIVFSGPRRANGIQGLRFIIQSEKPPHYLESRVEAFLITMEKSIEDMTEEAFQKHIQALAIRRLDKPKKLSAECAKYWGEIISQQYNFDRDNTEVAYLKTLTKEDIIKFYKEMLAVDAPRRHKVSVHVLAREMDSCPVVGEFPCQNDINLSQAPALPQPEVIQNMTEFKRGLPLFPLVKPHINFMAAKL
UniProt P41252: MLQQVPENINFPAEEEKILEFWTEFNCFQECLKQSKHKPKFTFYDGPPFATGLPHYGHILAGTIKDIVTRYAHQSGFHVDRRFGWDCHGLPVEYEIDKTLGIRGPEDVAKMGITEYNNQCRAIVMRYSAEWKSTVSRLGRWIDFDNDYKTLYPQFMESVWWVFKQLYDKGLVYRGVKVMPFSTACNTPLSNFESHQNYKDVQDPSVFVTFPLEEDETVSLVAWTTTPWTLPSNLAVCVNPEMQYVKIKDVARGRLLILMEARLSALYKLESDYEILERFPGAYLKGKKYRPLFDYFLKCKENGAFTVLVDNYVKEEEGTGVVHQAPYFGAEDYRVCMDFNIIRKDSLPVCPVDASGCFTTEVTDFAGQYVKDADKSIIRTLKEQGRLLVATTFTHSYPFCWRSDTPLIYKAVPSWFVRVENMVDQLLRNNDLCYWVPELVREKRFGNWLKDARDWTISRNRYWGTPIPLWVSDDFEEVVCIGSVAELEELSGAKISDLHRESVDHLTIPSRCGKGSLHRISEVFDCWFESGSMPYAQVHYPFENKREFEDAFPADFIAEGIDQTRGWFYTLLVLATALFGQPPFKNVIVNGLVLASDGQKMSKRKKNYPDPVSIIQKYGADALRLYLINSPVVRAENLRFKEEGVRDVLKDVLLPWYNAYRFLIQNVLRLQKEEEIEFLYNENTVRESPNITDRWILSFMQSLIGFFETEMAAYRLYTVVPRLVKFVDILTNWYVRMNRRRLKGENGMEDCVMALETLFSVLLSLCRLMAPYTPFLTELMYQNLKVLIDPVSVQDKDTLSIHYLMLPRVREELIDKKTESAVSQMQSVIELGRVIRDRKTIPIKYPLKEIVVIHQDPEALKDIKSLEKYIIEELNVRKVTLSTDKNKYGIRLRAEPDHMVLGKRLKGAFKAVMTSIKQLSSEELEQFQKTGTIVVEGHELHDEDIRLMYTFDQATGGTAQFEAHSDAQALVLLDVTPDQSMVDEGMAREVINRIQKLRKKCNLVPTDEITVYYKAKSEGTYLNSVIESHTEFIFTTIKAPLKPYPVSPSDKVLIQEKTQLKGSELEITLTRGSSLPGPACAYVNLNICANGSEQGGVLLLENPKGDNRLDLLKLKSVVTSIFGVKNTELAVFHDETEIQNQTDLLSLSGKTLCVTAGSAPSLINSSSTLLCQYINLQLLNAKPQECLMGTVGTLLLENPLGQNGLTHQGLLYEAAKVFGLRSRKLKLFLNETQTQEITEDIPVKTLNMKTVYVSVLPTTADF

compound: CC1Cc2ccccc2N1C(=O)C1CCCN(C1)C(=O)CCl (mixture of isomers) [TRIM25 ligand 11 (diastereomer mixture)]; test: probe-labelled cysteine peptide fold change vs DMSO (competition) (log2 fold change); higher = less target engagement (more negative = stronger competition); details: 10 µM; THP-1; incubation time: 4 h
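Further: competitive chemoproteomic profiling in live THP-1 cells with an iodoacetamide desthiobiotin (IA-DTB) probe, comparing probe-labelled peptide intensities in compound-treated cells against DMSO-treated controls.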

| Target | probe-labelled cysteine peptide fold change |
| --- | --- |
| IFT140_Q96RY7_155_HLTHCIFR (UniProt Q96RY7) | 0.268 |
| HYOU1_Q9Y4L1_352_VTRVEFEELCADLFER (UniProt Q9Y4L1) | 0.0103 |
| IGF2R_P11717_475_EKEDLLCGATDGK (UniProt P11717) | -0.063 |
| INF2_Q27J81_38_LGPQDSDPTEANLESADPELCIR (UniProt Q27J81) | -0.00116 |
| INPP4A_Q96PE3_540_SLECIIQR (UniProt Q96PE3) | 0.0194 |
| INPP5A_Q14642_381_VVTYDHIGPNVCMGDHKPVFLAFR (UniProt Q14642) | -0.0561 |
| HUWE1_Q7Z6Z7_699_YICQKPSIQK (UniProt Q7Z6Z7) | -0.0652 |
| IKBKB_O14920_524_EMEQAVELCGR (UniProt O14920) | 0.182 |
| IMPAD1_Q9NX62_302_KWDICAGNAILK (UniProt Q9NX62) | 0.0831 |
| IKBKG_Q9Y6K9_54_CLEENQELRDAIR (UniProt Q9Y6K9) | -0.189 |
| IGF2R_P11717_531_GCPEDAAVCAVDK (UniProt P11717) | 0.0614 |
| INF2_Q27J81_898_ELADYLCEDAQQLSLEDTFSTMK (UniProt Q27J81) | 0.0336 |
| IGF2R_P11717_2113_RFDIDSCTYYFSWDSR (UniProt P11717) | 0.0991 |
| IGFBP7_Q16270_71_GEGEPCGGGGAGR (UniProt Q16270) | -0.2 |
| ILVBL_A1L0T0_315_AAVETLGVPCFLGGMAR (UniProt A1L0T0) | 0.000564 |
| INPP5B_P32019_678_EFCFQNVK (UniProt P32019) | 0.151 |
| IKBKB_O14920_464_NNSCLSK (UniProt O14920) | -0.0606 |
| ILF3_Q12906_278_VLECLASGIVMPDGSGIYDPCEK (UniProt Q12906) | 0.108 |
| IMPDH2_P12268_173_DIDFLKEEEHDCFLEEIMTKR (UniProt P12268) | -0.465 |
| HUWE1_Q7Z6Z7_1252_AAFTCIK (UniProt Q7Z6Z7) | -0.109 |

| Target | probe-labelled cysteine peptide fold change |
| --- | --- |
| HUWE1_Q7Z6Z7_3385_ACSPCSSQSSSSGICTDFWDLLVK (UniProt Q7Z6Z7) | 0.0372 |
| IDUA_P35475_481_YLDNGLCSPDGEWR (UniProt P35475) | -0.0418 |
| IDE_P14735_171+178_FAQFFLCPLFDESCK (UniProt P14735) | -0.0754 |
| HTT_P42858_636_NMSHCR (UniProt P42858) | -0.11 |
| HUWE1_Q7Z6Z7_2106_EDCSVLAFVLDHLLPHTQNAEDKDTPALAR (UniProt Q7Z6Z7) | 0.0682 |
| IARS2_Q9NSE4_414_GTGLVHTAPAHGMEDYGVASQHNLPMDCLVDEDGVFTDVAGPELQNK (UniProt Q9NSE4) | 0.112 |
| IMPDH2_P12268_140_HGFCGIPITDTGR (UniProt P12268) | 0.0941 |
| ING2_Q9H160_124_QMELHSQCFQDPAESER (UniProt Q9H160) | -0.0233 |
| HUWE1_Q7Z6Z7_467_LEHEVDLCR (UniProt Q7Z6Z7) | 0.267 |
| ILKAP_Q9H0C8_325_FILLACDGLFK (UniProt Q9H0C8) | -0.0149 |
| IBTK_Q9P2D0_615_DEDSAGCHLFVVEK (UniProt Q9P2D0) | 0.218 |
| ICAM3_P32942_190_DDHGAPFSCR (UniProt P32942) | -0.00802 |
| ILK_Q13418_239_DFNEECPR (UniProt Q13418) | -0.132 |
| INF2_Q27J81_971_QEEVCVIDALLADIRK (UniProt Q27J81) | 0.0359 |
| HUWE1_Q7Z6Z7_183_ENGFGLAECCR (UniProt Q7Z6Z7) | -0.0934 |
| IGF2R_P11717_475_EDLLCGATDGK (UniProt P11717) | 0.141 |
| IDH3A_P50213_222_EVAESCK (UniProt P50213) | 0.0547 |
| IARS2_Q9NSE4_110_TEFCLHDGPPYANGDPHVGHALNK (UniProt Q9NSE4) | 0.0161 |
| IARS_P41252_120_MGITEYNNQCR (UniProt P41252) | 0.0787 |
| IGF2R_P11717_1942_LWCSTTADYDRDHEWGFCR (UniProt P11717) | -0.03 |

same assay, conditions: 50 µM; THP-1; incubation time: 4 h

| Target | probe-labelled cysteine peptide fold change |
| --- | --- |
| IFT140_Q96RY7_155_HLTHCIFR (UniProt Q96RY7) | 0.13 |
| HYOU1_Q9Y4L1_352_VTRVEFEELCADLFER (UniProt Q9Y4L1) | 0.0224 |
| IGF2R_P11717_475_EKEDLLCGATDGK (UniProt P11717) | -0.166 |
| INF2_Q27J81_38_LGPQDSDPTEANLESADPELCIR (UniProt Q27J81) | -0.0968 |
| INPP4A_Q96PE3_540_SLECIIQR (UniProt Q96PE3) | 0.0354 |
| INPP5A_Q14642_381_VVTYDHIGPNVCMGDHKPVFLAFR (UniProt Q14642) | 0.0215 |
| HUWE1_Q7Z6Z7_699_YICQKPSIQK (UniProt Q7Z6Z7) | -0.209 |
| IKBKB_O14920_524_EMEQAVELCGR (UniProt O14920) | 0.0969 |
| IMPAD1_Q9NX62_302_KWDICAGNAILK (UniProt Q9NX62) | 0.13 |
| IKBKG_Q9Y6K9_54_CLEENQELRDAIR (UniProt Q9Y6K9) | -0.272 |
| IGF2R_P11717_531_GCPEDAAVCAVDK (UniProt P11717) | 0.0238 |
| INF2_Q27J81_898_ELADYLCEDAQQLSLEDTFSTMK (UniProt Q27J81) | -0.231 |
| IGF2R_P11717_2113_RFDIDSCTYYFSWDSR (UniProt P11717) | 0.0766 |
| IGFBP7_Q16270_71_GEGEPCGGGGAGR (UniProt Q16270) | -0.139 |
| ILVBL_A1L0T0_315_AAVETLGVPCFLGGMAR (UniProt A1L0T0) | -0.123 |
| INPP5B_P32019_678_EFCFQNVK (UniProt P32019) | 0.141 |
| IKBKB_O14920_464_NNSCLSK (UniProt O14920) | -0.138 |
| ILF3_Q12906_278_VLECLASGIVMPDGSGIYDPCEK (UniProt Q12906) | -0.0629 |
| IMPDH2_P12268_173_DIDFLKEEEHDCFLEEIMTKR (UniProt P12268) | -0.3 |
| HUWE1_Q7Z6Z7_1252_AAFTCIK (UniProt Q7Z6Z7) | 0.197 |

| Target | probe-labelled cysteine peptide fold change |
| --- | --- |
| HUWE1_Q7Z6Z7_3385_ACSPCSSQSSSSGICTDFWDLLVK (UniProt Q7Z6Z7) | -0.102 |
| IDUA_P35475_481_YLDNGLCSPDGEWR (UniProt P35475) | -0.326 |
| IDE_P14735_171+178_FAQFFLCPLFDESCK (UniProt P14735) | -0.153 |
| HTT_P42858_636_NMSHCR (UniProt P42858) | -0.24 |
| HUWE1_Q7Z6Z7_2106_EDCSVLAFVLDHLLPHTQNAEDKDTPALAR (UniProt Q7Z6Z7) | 0.151 |
| IARS2_Q9NSE4_414_GTGLVHTAPAHGMEDYGVASQHNLPMDCLVDEDGVFTDVAGPELQNK (UniProt Q9NSE4) | -0.523 |
| IMPDH2_P12268_140_HGFCGIPITDTGR (UniProt P12268) | 0.0676 |
| ING2_Q9H160_124_QMELHSQCFQDPAESER (UniProt Q9H160) | -0.129 |
| HUWE1_Q7Z6Z7_467_LEHEVDLCR (UniProt Q7Z6Z7) | 0.232 |
| ILKAP_Q9H0C8_325_FILLACDGLFK (UniProt Q9H0C8) | -0.091 |
| IBTK_Q9P2D0_615_DEDSAGCHLFVVEK (UniProt Q9P2D0) | 0.148 |
| ICAM3_P32942_190_DDHGAPFSCR (UniProt P32942) | 0.0203 |
| ILK_Q13418_239_DFNEECPR (UniProt Q13418) | -0.0478 |
| INF2_Q27J81_971_QEEVCVIDALLADIRK (UniProt Q27J81) | -0.0427 |
| HUWE1_Q7Z6Z7_183_ENGFGLAECCR (UniProt Q7Z6Z7) | -0.00261 |
| IGF2R_P11717_475_EDLLCGATDGK (UniProt P11717) | 0.139 |
| IDH3A_P50213_222_EVAESCK (UniProt P50213) | 0.129 |
| IARS2_Q9NSE4_110_TEFCLHDGPPYANGDPHVGHALNK (UniProt Q9NSE4) | -0.0635 |
| IARS_P41252_120_MGITEYNNQCR (UniProt P41252) | 0.106 |
| IGF2R_P11717_1942_LWCSTTADYDRDHEWGFCR (UniProt P11717) | 0.0902 |
